Some of the results follow. These are further read-outs of the screen, such as a control signal, another cell line or another target. No call is given for them. Most of these compounds were active or inconclusive in the main read-out, so they are no random draw. The note in brackets gives the kind of curve behind each potency; many fits are weak.
Test: IkB Signaling
Conditions: ABC-DLBCL IkBa-CBG/CBR dual luciferase ratio (green luciferase fused to IkBa over red control in OCI-Ly3 lymphoma cells), 4 h
From the text: NIH Molecular Libraries Screening Centers Network [MLSCN]
NIH Chemical Genomics Center [NCGC]
Nuclear factor kappa-B (NF-kappa-B) plays an important role in normal B cell development and survival. Diffuse large B cell lymphoma (DLBCL) is the most commonly observed type of non-Hodgkin's lymphoma. Gene expression analysis has identified an activated B cell-like subtype of DLBCL (ABC-DLBCL) which expresses known NF-kappa-B target genes. […] However, targets upstream of IKK have been largely unexplored and so nodes upstream of IKK in the NF-kappa-B pathway remain untested due to the lack of chemical probes.
A cell-sensor assay for I-kappa-B-alpha stabilization was developed with NIH investigator Dr. R. Eric Davis in Dr. Louis M. Staudt's laboratory. The assay uses green (CBG68) and red (CBR) emitting beetle luciferases [Chroma-Glo(TM) developed by Promega Corp.] where the green luciferase is fused to I-kappa-B-alpha and the red luciferase is present in its native state. Both luciferase genes are stably present in the OCI-Ly3 human ABC DLBCL cell line, but their expression is under the control of tetracycline-inducible promoters. Following the addition of doxycycline to induce expression of the luciferases, the green luminescence in control cultures rises only slowly because the CBG fusion partner I-kappa-B-alpha is targeted by IKK activity for rapid degradation. In contrast, green luminescence rises rapidly in the presence of proteasome inhibitors or IKK inhibitors. The rise in red luminescence of CBR is not affected by proteasome or IKK inhibitors, and serves as normalization for cell number and nonspecific effects. Compounds were screened as a concentration-titration series that ranged from 57 uM to 0.7 nM.
NCGC Assay Protocol Summary:
Cells were seeded in 1536-well plates at 5000 cells/3ul in IMDM medium containing 0.5% FBS, w/o phenol red, L-glutamine, 25 mM HEPES, 3 mg/ml sodium bicarbonate. After centrifugation for 1 min. at 1000 rpm, 23 nl of compounds or DMSO were delivered to each well using a pin tool. Then 1ul 80ng/ml doxycycline was dispensed into white solid 1536-well plates and the plates were incubated at 37C/5% C02 in a cell incubator for 4 hrs. Then 4 ul Chroma-Glo luminescent substrate mix (Promega) was added to each well. The plate was incubated at R.T. for 10-15 min. The plates were measured on a ViewLux plate reader for green luminescence (540/20 nm filter) and red luminescence (618/8 nm filter). The green and red luminescent signals were corrected for red and green luminescence filter overlap using previously determined filter calibration constants (determined using the procedure outlined in the Promega Technical Manual). The %Activity was determined from the ratio of corrected green/red luminescent values. Green luminescent and ratio %Activity was determined by normalizing to the difference in signal between basal cells (0% Activity) and cells incubated with 10 uM of the proteasome inhibitor MG-132 (100% Activity). Red luminescent %Activity was normalized to the difference between red luminesence in basal cells (0%Activity) and zero luminescence (-100% Activity).
Concentration-response curves were fitted to the signals arising from the green luminescence (I-kappa-B-alpha-luciferase fusion; IkB-luc) and the red luminescence (unfused luciferase; luc) as well as the calculated ratio. The concentration-effect curves were then classified based on curve quality (r2), response magnitude and degree of measured activity. Compounds were then categorized based on their concentration-response curves for all three datasets (Ikb-luc, luc and ratio).
Keywords: IKK, I-kappa-B, IkB, IkBa, cytotoxicity, luminescence, MLSMR, MLSCN, NIH Roadmap, qHTS, NCGC

[1] = measured here: control luc red channel unless noted

## CC(Nc1ccc(-c2nc(-c3ccco3)no2)cc1[N+](=O)[O-])c1ccccc1 (stereo unspecified)
[1]
  AC50: 6.31 µM [rising, partial curve, poor fit]

## CC(C)(C)C(=O)Nc1cccc(C(=O)OCc2cc(=O)n3nc(C4CC4)sc3n2)c1
[1]
  AC50: 12.6 µM [falling, partial curve]

## COc1cc(NC(=O)c2cc3ccc4cccnc4c3[nH]2)cc(OC)c1OC
[1]
  AC50: 1 µM [falling, full curve]

## CCOC(=O)c1ccc(NC(=O)CSc2nc(-c3cccs3)cc(C(F)(F)F)c2C#N)cc1
[1]
  AC50: 0.158 µM [falling, full curve, poor fit]

## COC(=O)CN1C(=O)CSc2ccc(S(=O)(=O)Nc3c(C)cc(C)cc3C)cc21
[1]
  AC50: 31.6 µM [falling, partial curve, poor fit]

## CCS(=O)(=O)c1nc(S(=O)(=O)c2ccc(C)cc2)c(NCC(C)C)s1
[1]
  AC50: 20 µM [falling, single point]

## CCOC(=O)N1CCc2c(sc(NCc3sccc3C)c2C(=O)Nc2cc(Cl)ccc2OC)C1
[1]
  AC50: 12.6 µM [falling, partial curve, poor fit]

## O=C1CN(C(=O)COc2ccc(Cl)cc2)C(c2ccc(F)cc2)c2cc(Br)ccc2N1 (stereo unspecified)
[1]
  AC50: 12.6 µM [falling, partial curve]

## CC(=O)C1=C(c2ccc(Cl)c(Cl)c2)N(C(C)=O)n2cnnc2S1
[1]
  AC50: 25.1 µM [falling, partial curve]

## Cc1ccc(NC(=O)N2CCN(Cc3nc4ccc(C)cc4o3)CC2)c(Cl)c1
[1]
  AC50: 31.6 µM [falling, single point]

## COc1cc(OC)cc(C(=O)Nc2ccc3c(c2)OCCO3)c1
[1]
  AC50: 20 µM [falling, partial curve]

## COc1ccc(-c2nc3sc(CCNC(=O)C(=O)Nc4ccc(C)c(F)c4)c(C)n3n2)cc1
[1]
  AC50: 10 µM [falling, partial curve]

## CCc1ccc(S(=O)(=O)c2cn(C)c3cc(F)c(F)cc3c2=O)cc1
[1]
  AC50: 31.6 µM [falling, single point]

## CCOc1ccc(NC(=O)Cn2c(=O)n(Cc3ccco3)c(=O)c3ccc(C(=O)NC4CCCC4)cc32)cc1
[1]
  AC50: 39.8 µM [rising, single point] [measured here: IkB-luc green channel]

## O=C1CC(c2cccc(Cl)c2Cl)c2cc3c(cc2N1)OCCO3 (stereo unspecified)
[1]
  AC50: 31.6 µM [falling, partial curve]

## CC(=O)c1ccc(N2CCN(c3nc4ccccc4c4nc(-c5cccc(C)c5)nn34)CC2)cc1
[1]
  AC50: 0.316 µM [rising, full curve, poor fit]

## O=C(C1CCCN(S(=O)(=O)c2ccc(Cl)cc2)C1)N(Cc1cccs1)C1CC1 (stereo unspecified)
[1]
  AC50: 39.8 µM [falling, single point]

## CCc1cc(-c2[nH]ncc2-c2ccc3c(c2)OCO3)c(O)cc1O
[1]
  AC50: 10 µM [falling, partial curve]

## Cc1oc(-c2ccccc2Cl)nc1CS(=O)CC(=O)NCc1ccccc1Cl (stereo unspecified)
[1]
  AC50: 3.98 µM [falling, single point]

## CCOC(=O)c1ccc(NC(=O)COc2cccc3c(=O)n(C)ccc23)cc1
[1]
  AC50: 20 µM [falling, single point]

## Cc1cc(Cl)ccc1OCC(=O)N1CCC(c2nc3ccccc3o2)CC1
[1]
  AC50: 25.1 µM [falling, partial curve]

## CCOc1ccc(NC(=O)N2CCC(c3ccc(C)cc3)C2)cc1 (stereo unspecified)
[1]
  AC50: 3.98 µM [rising, single point]

## COc1ccccc1CNC(=O)CSCc1nc(-c2ccc(OC)c(OC)c2)oc1C
[1]
  AC50: 31.6 µM [falling, single point]

## CCCCNC(=O)c1sc(=S)n2c1[nH]c(=O)c1ccccc12
[1]
  AC50: 5.01 µM [falling, full curve]

## O=C(Nc1cccc(C(=O)OCc2cc(=O)n3c4c(sc3n2)CCCC4)c1)c1cccc(Cl)c1
[1]
  AC50: 1 µM [falling, full curve]

## Cc1nc(-c2ccc(S(=O)(=O)N(Cc3ccccc3)C(C)C)cc2)co1
[1]
  AC50: 15.8 µM [falling, partial curve]

## CCOc1ccc(CCNC(=O)c2ccc3c(c2)nc2n3CCOC2)cc1OCC
[1]
  AC50: 3.16 µM [rising, partial curve, poor fit]

## CC(C)OCCCNC(=O)CCCn1c(SCC(N)=O)nc2c(sc3ccccc32)c1=O
[1]
  AC50: 0.01 µM [falling, full curve, poor fit]

## COc1ccccc1N1CCN(C(=O)c2ccc3nc(-c4ccco4)c(-c4ccco4)nc3c2)CC1
[1]
  AC50: 10 µM [falling, partial curve]

## O=C(CCS(=O)(=O)c1nc(-c2cccs2)cc(C(F)(F)F)n1)Nc1ccc(F)c(Cl)c1
[1]
  AC50: 3.16 µM [falling, full curve]

## Cc1ccc(NC(=O)C2CCN(S(=O)(=O)c3ccc4c(c3)CCCN4C(=O)C3CCC3)CC2)cc1
[1]
  AC50: 39.8 µM [falling, single point]

## O=C(NCCCN1CCCCC1)c1[nH]c2ccccc2c1Sc1ccc(Cl)cc1
[1]
  AC50: 12.6 µM [falling, partial curve, poor fit]

## Cc1oc(-c2ccc3c(c2)OCCO3)cc1C(=O)NC(CCC(=O)O)C(=O)O (stereo unspecified)
Measured here: IkB-luc green channel
  AC50: 0.398 µM [falling, partial curve]
Measured here: control luc red channel
  AC50: 20 µM [falling, partial curve]

## Cc1cc(C)nc(NS(=O)(=O)c2ccc(NC(=O)c3nc(SC(C)C)ncc3Cl)cc2)n1
[1]
  AC50: 12.6 µM [falling, partial curve, poor fit]

## Cc1c(Cl)cccc1-n1ncc(C(=O)N2CCC(C)CC2)c1C1CCN(C(=O)OC(C)(C)C)CC1
[1]
  AC50: 12.6 µM [falling, partial curve]

## COc1ccc(NC(=O)CSc2nc(-c3ccccc3)[nH]c2-c2ccccc2)cc1OC
[1]
  AC50: 25.1 µM [falling, single point]

## COc1ccccc1-n1c(SCC(=O)N2CCOCC2)nc(O)c(Cc2ccccc2)c1=O
[1]
  AC50: 12.6 µM [falling, partial curve]

## CC(C)C(NS(=O)(=O)c1ccc2c(c1)oc(=O)n2C)C(=O)NCc1ccccc1 (stereo unspecified)
[1]
  AC50: 0.0251 µM [falling, full curve, poor fit]

## CC(=O)c1ccc(N2CCN(C(=O)c3cc4c(s3)-c3ccccc3OC4)CC2)cc1
[1]
  AC50: 25.1 µM [falling, single point]

## N#Cc1c(NC(=O)CCn2cnc3ccccc3c2=O)oc(-c2ccccc2)c1-c1ccccc1
[1]
  AC50: 5.01 µM [falling, full curve, poor fit]

## CCOC(=O)c1c(-c2ccccc2)csc1NC(=O)c1cc(-c2ccc(C)c(F)c2)on1
[1]
  AC50: 15.8 µM [falling, partial curve]

## O=C(NC1CCCCCC1)C1c2ccccc2C(=O)N1Cc1ccccc1Cl (stereo unspecified)
[1]
  AC50: 1 µM [rising, full curve, poor fit]

## CCN(CC)S(=O)(=O)c1ccc2c(c1)N(CC(=O)N1CCN(c3ccc(Cl)cc3)CC1)C(=O)CO2
[1]
  AC50: 1.58 µM [rising, full curve, poor fit]

## Cc1ccc(-n2c3c(cc(C(=O)Nc4cccc(Cl)c4)c2=O)C(=O)CC(C)(C)C3)cc1
[1]
  AC50: 7.94 µM [rising, single point]

## Cc1ccc(Cl)cc1N1CCN(C(=O)CCCCCn2c(=O)[nH]c3ccccc3c2=O)CC1
[1]
  AC50: 20 µM [falling, partial curve]

## CCc1ccc(NC(=O)C2CCCN(S(=O)(=O)c3c(C)noc3/C=C/N(C)C)C2)cc1 (stereo unspecified)
[1]
  AC50: 25.1 µM [falling, single point]

## COc1ccccc1N1CCN(Cc2ccc(OC)c3ccccc23)CC1
[1]
  AC50: 12.6 µM [falling, partial curve]

## CC(C)OC(=O)c1cccnc1SCC(=O)Nc1ccc(C(F)(F)F)cc1Cl
[1]
  AC50: 7.94 µM [rising, full curve]

## O=C(c1ccco1)[C@@H]1[C@@H]2C(=O)N(c3ccc(F)cc3)C(=O)[C@@H]2C2c3ccccc3C=CN21 (stereo partly specified)
[1]
  AC50: 2 µM [falling, full curve]

## CCN1C(=O)c2ccccc2S(=O)(=O)c2ccc(C(=O)NCc3ccccc3Cl)cc21
[1]
  AC50: 25.1 µM [falling, single point]

## COc1cccc(CNC(=O)c2c(C)oc3nc(C)nc(N4CCOCC4)c23)c1
[1]
  AC50: 10 µM [falling, partial curve]

## CCOC(=O)C1CCN(C(=O)CSc2n[nH]c(-c3ccc(F)cc3)n2)CC1
[1]
  AC50: 31.6 µM [falling, single point]

## O=C(Cn1c(=O)oc2cc(S(=O)(=O)N3CCCC3)ccc21)NCc1ccc(F)cc1
[1]
  AC50: 0.398 µM [falling, single point]

## CCN(CC)c1ccc(NC(=O)CCCCCN2C(=O)c3ccccc3C2=O)cc1
[1]
  AC50: 15.8 µM [falling, partial curve]

## Cc1cc(C(=O)C(=O)Nc2nnc(C(C)C)s2)c(C)n1-c1ccccc1
[1]
  AC50: 7.94 µM [falling, partial curve]

## Cc1ccccc1NS(=O)(=O)c1ccc2[nH]c3c(c2c1)CCCCC3
[1]
  AC50: 31.6 µM [falling, single point]

## O=C(Nc1sc2c(c1C(=O)O)CCCCC2)c1ccco1
[1]
  AC50: 0.02 µM [falling, full curve]

## Cc1ccc(Cl)cc1N1CCN(C(=O)c2ccc3nc(N4CCC(C)CC4)sc3c2)CC1
[1]
  AC50: 10 µM [falling, partial curve]

## CCOc1ccccc1CNC(=O)CCn1ccc2cc(S(=O)(=O)N3CCCCC3)ccc21
[1]
  AC50: 15.8 µM [falling, partial curve]

## Cn1c(=O)c2sccc2n2c(CCCC(=O)Nc3ccc(Oc4ccc(Cl)cc4)cc3)nnc12
[1]
  AC50: 10 µM [falling, partial curve]
